The record followed here is paper PMC10819386.

Amino acid sequences for entries named in this document (tags omitted). Residues count along the entry.
UniProt P48643: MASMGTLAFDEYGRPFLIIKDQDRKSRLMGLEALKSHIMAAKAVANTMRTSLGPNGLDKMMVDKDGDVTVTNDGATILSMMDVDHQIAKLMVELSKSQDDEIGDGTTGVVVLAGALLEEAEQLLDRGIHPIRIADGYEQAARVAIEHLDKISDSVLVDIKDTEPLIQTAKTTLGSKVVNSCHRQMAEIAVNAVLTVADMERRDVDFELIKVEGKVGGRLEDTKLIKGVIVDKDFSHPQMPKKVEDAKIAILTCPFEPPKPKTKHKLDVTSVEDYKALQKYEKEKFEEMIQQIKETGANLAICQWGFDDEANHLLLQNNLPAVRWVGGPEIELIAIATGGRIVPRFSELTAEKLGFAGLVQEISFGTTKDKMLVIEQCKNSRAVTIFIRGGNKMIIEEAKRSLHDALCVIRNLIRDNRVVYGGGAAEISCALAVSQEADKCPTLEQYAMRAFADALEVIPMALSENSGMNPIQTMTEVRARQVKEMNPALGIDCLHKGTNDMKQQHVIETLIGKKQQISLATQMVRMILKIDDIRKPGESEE
UniProt P04977, residues 35-269: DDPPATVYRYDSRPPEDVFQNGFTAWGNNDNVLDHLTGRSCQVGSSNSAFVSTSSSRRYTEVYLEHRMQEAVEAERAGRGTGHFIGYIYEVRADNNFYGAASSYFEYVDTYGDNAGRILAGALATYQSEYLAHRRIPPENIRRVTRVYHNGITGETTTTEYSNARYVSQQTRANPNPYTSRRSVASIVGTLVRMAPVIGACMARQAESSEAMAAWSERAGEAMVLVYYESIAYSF

The test deals with TRiC/CCT chaperonin complex subunit CCT5 (human (endogenous in A549)) (UniProt P48643). The experiment in a line: proximity ligation; A549 cells pre-incubated 30 min with 200 µM HSF1A or DMSO or left without, then 100 ng/mL PT for 4 h at 37 °C; fixed, permeabilized; rabbit anti-PT and mouse anti-CCT5 primary antibodies, Duolink PLA; signals counted per cell.

Results are given in words; binding and its absence hold for the method and conditions named. In cells and extracts the contact can be indirect. Some binding calls cover weakened binding; strength is not graded here.

On to “Pertussis toxin enzyme subunit PTS1 (from UniProt P04977 35-269)”, for which the binding result was “binds”.
